The other results are listed elsewhere or left out.
Compound: COc1ccc(Cn2ccc3ccc(C(=O)NO)cc32)cc1
Experiment: dose-dependent thermal stabilisation call (2D-TPP, DLPTP, 10% FDR) (binary (1 = stabilised)); higher = stabilised by the compound
Details: system: HL-60 intact cells; concentration range 0.04-10 µM

Amino acid sequences for entries named in this document (tags omitted). A change or cut given only in a name is not applied to a line headed by its entry.
UniProt Q9H425: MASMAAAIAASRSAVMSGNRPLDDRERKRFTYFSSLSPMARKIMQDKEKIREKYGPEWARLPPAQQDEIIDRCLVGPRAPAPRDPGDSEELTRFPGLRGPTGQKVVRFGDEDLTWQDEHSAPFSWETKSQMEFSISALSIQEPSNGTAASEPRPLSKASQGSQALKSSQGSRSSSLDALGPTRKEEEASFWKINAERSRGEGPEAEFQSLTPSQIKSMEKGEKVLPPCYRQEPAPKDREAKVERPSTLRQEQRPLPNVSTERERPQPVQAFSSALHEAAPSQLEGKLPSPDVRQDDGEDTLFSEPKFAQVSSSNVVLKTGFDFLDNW
UniProt Q7L5D6: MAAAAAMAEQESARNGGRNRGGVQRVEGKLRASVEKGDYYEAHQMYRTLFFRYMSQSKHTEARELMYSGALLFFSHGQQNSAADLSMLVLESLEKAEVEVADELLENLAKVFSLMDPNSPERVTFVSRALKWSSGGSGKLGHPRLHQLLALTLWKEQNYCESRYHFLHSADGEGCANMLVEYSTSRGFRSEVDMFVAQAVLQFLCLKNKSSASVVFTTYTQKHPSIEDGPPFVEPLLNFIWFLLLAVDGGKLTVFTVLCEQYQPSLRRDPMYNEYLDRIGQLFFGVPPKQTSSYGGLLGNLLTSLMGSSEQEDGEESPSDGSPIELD
UniProt P04632: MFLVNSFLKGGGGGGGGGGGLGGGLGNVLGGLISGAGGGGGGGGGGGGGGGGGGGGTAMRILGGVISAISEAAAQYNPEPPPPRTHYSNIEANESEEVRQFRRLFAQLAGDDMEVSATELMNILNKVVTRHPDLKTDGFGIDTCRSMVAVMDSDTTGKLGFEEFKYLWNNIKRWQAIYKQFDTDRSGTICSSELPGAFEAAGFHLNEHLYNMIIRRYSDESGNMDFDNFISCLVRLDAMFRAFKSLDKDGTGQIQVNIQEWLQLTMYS
UniProt P35219: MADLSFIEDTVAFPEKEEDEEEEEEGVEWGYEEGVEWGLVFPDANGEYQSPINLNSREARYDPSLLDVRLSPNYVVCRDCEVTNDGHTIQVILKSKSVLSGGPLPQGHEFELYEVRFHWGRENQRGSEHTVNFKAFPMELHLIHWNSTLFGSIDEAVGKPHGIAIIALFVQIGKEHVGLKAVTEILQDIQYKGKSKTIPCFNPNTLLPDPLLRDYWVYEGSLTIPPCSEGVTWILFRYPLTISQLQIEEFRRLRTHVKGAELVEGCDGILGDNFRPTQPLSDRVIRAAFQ
UniProt Q96KF7: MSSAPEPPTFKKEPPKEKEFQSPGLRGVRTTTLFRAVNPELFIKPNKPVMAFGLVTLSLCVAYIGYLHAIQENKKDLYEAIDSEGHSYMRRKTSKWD
UniProt Q8NDD1: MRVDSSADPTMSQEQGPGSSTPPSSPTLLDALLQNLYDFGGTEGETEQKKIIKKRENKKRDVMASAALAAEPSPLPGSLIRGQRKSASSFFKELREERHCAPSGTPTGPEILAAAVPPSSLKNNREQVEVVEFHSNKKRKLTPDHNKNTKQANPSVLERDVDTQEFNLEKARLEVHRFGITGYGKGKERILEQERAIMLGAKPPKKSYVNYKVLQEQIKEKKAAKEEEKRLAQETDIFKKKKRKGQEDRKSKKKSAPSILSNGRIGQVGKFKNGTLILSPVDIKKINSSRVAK
UniProt P29466: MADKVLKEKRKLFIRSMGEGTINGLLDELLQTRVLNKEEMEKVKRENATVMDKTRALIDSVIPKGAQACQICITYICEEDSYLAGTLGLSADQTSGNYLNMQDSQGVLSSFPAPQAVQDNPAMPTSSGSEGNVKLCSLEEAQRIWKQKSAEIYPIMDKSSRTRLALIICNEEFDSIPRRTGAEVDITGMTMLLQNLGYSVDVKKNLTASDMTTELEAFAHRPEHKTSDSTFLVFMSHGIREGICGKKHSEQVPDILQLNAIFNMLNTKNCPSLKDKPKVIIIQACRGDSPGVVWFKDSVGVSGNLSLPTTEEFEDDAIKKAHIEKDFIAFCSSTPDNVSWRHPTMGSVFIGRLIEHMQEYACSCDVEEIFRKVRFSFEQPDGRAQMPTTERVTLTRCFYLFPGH
UniProt Q9BRT2: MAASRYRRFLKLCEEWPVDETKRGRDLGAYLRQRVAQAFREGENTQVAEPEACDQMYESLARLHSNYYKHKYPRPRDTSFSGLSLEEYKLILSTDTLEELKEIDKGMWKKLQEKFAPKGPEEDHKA
UniProt Q9HC52: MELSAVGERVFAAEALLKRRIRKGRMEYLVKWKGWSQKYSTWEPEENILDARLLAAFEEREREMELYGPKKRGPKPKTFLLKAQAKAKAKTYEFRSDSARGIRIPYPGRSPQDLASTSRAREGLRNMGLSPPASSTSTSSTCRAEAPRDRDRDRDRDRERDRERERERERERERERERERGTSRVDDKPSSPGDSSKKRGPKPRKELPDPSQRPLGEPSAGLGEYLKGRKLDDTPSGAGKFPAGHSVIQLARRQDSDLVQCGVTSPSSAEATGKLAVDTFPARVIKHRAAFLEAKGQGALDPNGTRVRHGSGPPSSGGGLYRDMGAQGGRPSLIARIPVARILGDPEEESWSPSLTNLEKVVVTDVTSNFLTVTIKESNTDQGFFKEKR
UniProt Q9H6R7: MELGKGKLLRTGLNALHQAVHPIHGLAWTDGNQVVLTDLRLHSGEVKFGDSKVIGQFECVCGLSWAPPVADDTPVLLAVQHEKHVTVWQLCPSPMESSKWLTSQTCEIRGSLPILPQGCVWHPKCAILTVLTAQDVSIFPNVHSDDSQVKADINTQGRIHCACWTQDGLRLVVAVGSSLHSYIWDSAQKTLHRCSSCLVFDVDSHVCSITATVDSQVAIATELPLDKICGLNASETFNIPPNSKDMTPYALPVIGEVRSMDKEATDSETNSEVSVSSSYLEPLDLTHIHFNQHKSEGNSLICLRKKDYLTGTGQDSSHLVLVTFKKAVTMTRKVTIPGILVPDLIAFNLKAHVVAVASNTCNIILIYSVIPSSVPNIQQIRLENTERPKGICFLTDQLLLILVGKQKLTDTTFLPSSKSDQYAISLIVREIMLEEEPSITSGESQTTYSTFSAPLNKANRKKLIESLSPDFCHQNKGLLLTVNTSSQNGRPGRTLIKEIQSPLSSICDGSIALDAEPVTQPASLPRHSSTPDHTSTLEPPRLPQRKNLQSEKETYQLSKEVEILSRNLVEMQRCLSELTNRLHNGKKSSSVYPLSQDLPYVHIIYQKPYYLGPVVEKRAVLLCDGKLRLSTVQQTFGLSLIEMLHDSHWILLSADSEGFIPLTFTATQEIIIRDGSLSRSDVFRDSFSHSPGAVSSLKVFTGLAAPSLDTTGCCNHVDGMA
UniProt Q9HDC9: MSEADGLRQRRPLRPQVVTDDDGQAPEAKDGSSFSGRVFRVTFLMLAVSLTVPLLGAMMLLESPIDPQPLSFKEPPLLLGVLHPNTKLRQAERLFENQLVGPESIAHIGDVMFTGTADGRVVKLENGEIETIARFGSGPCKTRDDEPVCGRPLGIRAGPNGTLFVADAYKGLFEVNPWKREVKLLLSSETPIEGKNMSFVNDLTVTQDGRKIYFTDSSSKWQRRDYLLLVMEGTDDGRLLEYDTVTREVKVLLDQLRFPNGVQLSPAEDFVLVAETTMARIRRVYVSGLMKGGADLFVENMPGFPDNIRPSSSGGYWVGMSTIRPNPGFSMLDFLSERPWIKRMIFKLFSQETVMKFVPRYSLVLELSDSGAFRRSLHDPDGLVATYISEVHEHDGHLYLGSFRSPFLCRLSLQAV

Target | dose-dependent thermal stabilisation call
C1ORF198 (UniProt Q9H425) | inactive: 0
C7ORF20 (UniProt Q7L5D6) | inactive: 0
CAPNS1 (UniProt P04632) | inactive: 0
C16ORF13 (UniProt Q96S19) | active: 1
CA8 (UniProt P35219) | inactive: 0
C6ORF162 (UniProt Q96KF7) | inactive: 0
C1ORF131 (UniProt Q8NDD1) | inactive: 0
CASP1 (UniProt P29466) | inactive: 0
C6ORF125 (UniProt Q9BRT2) | inactive: 0
CBX8 (UniProt Q9HC52) | inactive: 0
C2ORF44 (UniProt Q9H6R7) | inactive: 0
C20ORF3 (UniProt Q9HDC9) | inactive: 0

Looked up above:
C1ORF198 (UniProt Q9H425) – dose-dependent thermal stabilisation call: inactive: 0
C6ORF162 (UniProt Q96KF7) – dose-dependent thermal stabilisation call: inactive: 0
